PubChem BioAssay AID504764 – Drosophila RNAi Screening Center – 2011
The screen tested about 22,000 reagents; below is a random part of those with a known target gene and a result. In the full data, 403 (1.9%) were called active. 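Unnormalised raw counts per well; ratio z-scores behind the hit calls and whether each hit raises or lowers signal are not deposited.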 A plus sign joins genes that one reagent is predicted to hit. The record does not give: the amount of reagent.

Assay: 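Genome-wide screen for regulators of Notch-driven gene expression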 (primary screen)
System: Drosophila Kc167 cells
Reagents: long dsRNA against Drosophila genes
Time to read-out: about 5 days (4 days dsRNA, then 24 h after transfection)
Treatment: transfection of constitutively active membrane-tethered Notch lacking the extracellular domain, read 24 h later
Measurement: 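Light from a Notch-responsive E(spl)m3 luciferase reporter under active Notch, with control-promoter and no-Notch reporter wells to normalise; raw counts from paired wells a and b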
Scale: induced reporter light, run 1, well a and induced reporter light, run 1, well b: higher = more light from the Notch target reporter with active Notch; control promoter light, run 1, well a and control promoter light, run 1, well b: higher = more light from the viral control promoter (cell number, transfection, viability); uninduced reporter light, run 1, well a: higher = more light from the Notch target reporter without active Notch
Hit rule: 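Hit if the duplicate-averaged log2 ratio of induced to control-promoter light gives a plate-wise z beyond ±2, or induced to uninduced beyond ±1.8; weak-control or discordant-duplicate wells dropped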
Calls: active = modifier hit (raised or lowered Notch signal); inactive = not a hit

Target gene | DRSC id | induced reporter light, run 1, well a | induced reporter light, run 1, well b | control promoter light, run 1, well a | control promoter light, run 1, well b | uninduced reporter light, run 1, well a | call
Pex23 (Peroxin 23) | DRSC10323 | 1.30e5 | 1.66e5 | 74510 | 82655 | 11950 | inactive
Pex23 (Peroxin 23) | DRSC10645 | 1.01e5 | 1.06e5 | 1.19e5 | 1.03e5 | 8265 | inactive
CG15841 (retired record) + Acp33A | DRSC01859 | 1.17e5 | 1.26e5 | 74380 | 99455 | 16800 | inactive
Smyd4-4 (SET and MYND domain containing, class 4, member 4) | DRSC05956 | 1.55e5 | 1.09e5 | 1.05e5 | 92340 | 10100 | inactive
CG7407 | DRSC11824 | 1.44e5 | 1.14e5 | 63935 | 73005 | 9750 | inactive
Ir67a (Ionotropic receptor 67a) | DRSC09897 | 2.01e5 | 1.66e5 | 2.16e5 | 1.45e5 | 6700 | inactive
Hrb98DE (Heterogeneous nuclear ribonucleoprotein at 98DE) | DRSC16709 | 1.26e5 | 1.36e5 | 1.89e5 | 2.17e5 | 10532 | inactive
hgo (homogentisate 1,2-dioxygenase) | DRSC03544 | 1.24e5 | 1.31e5 | 74440 | 1.06e5 | 16885 | inactive
CG9003 | DRSC07317 | 1.04e5 | 1.22e5 | 1.29e5 | 1.57e5 | 12015 | inactive
btz (barentsz) | DRSC14566 | 1.70e5 | 1.93e5 | 2.49e5 | 2.69e5 | 16275 | inactive
CG32236 | DRSC08117 | 1.89e5 | 1.48e5 | 1.76e5 | 1.73e5 | 13080 | inactive
mtsh (mitoshell) | DRSC03070 | 1.41e5 | 1.69e5 | 92530 | 1.09e5 | 19505 | inactive
Smu1 (Smu1 spliceosomal factor) | DRSC15803 | 92085 | 1.28e5 | 1.20e5 | 1.09e5 | 7785 | inactive
Bub1 (Bub1 kinase) | DRSC02357 | 13750 | 17660 | 9805 | 11000 | 5650 | inactive
Drgx (Dorsal root ganglia homeobox) | DRSC00278 | 80165 | 58060 | 55585 | 56085 | 5715 | inactive
Drgx (Dorsal root ganglia homeobox) | DRSC00537 | 65520 | 49330 | 74385 | 68045 | 4490 | inactive
CG16704 | DRSC00475 | 2.63e5 | 2.04e5 | 2.37e5 | 2.40e5 | 11338 | inactive
CG32944 | DRSC12138 | 1.42e5 | 1.26e5 | 1.05e5 | 88430 | 8640 | inactive
CG32944 | DRSC12341 | 1.62e5 | 1.11e5 | 1.38e5 | 1.57e5 | 10200 | inactive
gpp (grappa) | DRSC12515 | 72905 | 75275 | 34500 | 44535 | 6818 | inactive
gpp (grappa) | DRSC12516 | 34870 | 54425 | 35430 | 23545 | 7080 | inactive
CG5969 | DRSC11789 | 1.20e5 | 94155 | 60105 | 81040 | 6975 | inactive
CG12935 + Nop10 | DRSC07025 | 1.56e5 | 1.49e5 | 1.92e5 | 1.55e5 | 14635 | inactive
sinah (sina homologue) | DRSC09910 | 2.06e5 | 1.79e5 | 2.74e5 | 1.68e5 | 7380 | inactive
sinah (sina homologue) | DRSC22181 | – | – | – | – | – | inactive
CG12420 | DRSC14514 | 98760 | 95745 | 89775 | 66450 | 4520 | inactive
CG3651 | DRSC03730 | 66895 | 57140 | 46300 | 70600 | 4735 | inactive
CG32720 | DRSC17529 | 75010 | 66100 | 83340 | 67770 | 6235 | inactive
CG30110 | DRSC05686 | 1.00e5 | 1.18e5 | 1.20e5 | 1.10e5 | 8925 | inactive
CG32305 | DRSC08614 | 1.03e5 | 1.37e5 | 2.15e5 | 1.88e5 | 7550 | inactive
CG1889 | DRSC18195 | 1.91e5 | 1.88e5 | 2.28e5 | 2.33e5 | 12380 | inactive
Gr85a (Gustatory receptor 85a) | DRSC12760 | 1.56e5 | 2.25e5 | 1.95e5 | 2.18e5 | 13685 | inactive
wap (wings apart) | DRSC20626 | 1.22e5 | 1.10e5 | 99350 | 49330 | 10805 | inactive
Herc4 (HECT and RLD domain containing E3 ubiquitin ligase 4) | DRSC08631 | 1.46e5 | 2.28e5 | 2.74e5 | 2.99e5 | 10170 | inactive

Single entries from above:
Under “uninduced reporter light, run 1, well a”, CG12935 + Nop10 [DRSC07025] has 14635
Bub1 (Bub1 kinase) [DRSC02357], induced reporter light, run 1, well b: 17660
Pex23 (Peroxin 23) [DRSC10323], call → inactive
